Results are given in words; binding and its absence hold for the method and conditions named. Some entries that bind do so weakly or less than the wild type.

Protein sequences, listed by entry. Tags and fused reporters are not part of them. Lines headed by an entry give the natural chain unless they say otherwise; changes in a name come on top. Residues count along the entry.
UniProt P04004, residues 20-478: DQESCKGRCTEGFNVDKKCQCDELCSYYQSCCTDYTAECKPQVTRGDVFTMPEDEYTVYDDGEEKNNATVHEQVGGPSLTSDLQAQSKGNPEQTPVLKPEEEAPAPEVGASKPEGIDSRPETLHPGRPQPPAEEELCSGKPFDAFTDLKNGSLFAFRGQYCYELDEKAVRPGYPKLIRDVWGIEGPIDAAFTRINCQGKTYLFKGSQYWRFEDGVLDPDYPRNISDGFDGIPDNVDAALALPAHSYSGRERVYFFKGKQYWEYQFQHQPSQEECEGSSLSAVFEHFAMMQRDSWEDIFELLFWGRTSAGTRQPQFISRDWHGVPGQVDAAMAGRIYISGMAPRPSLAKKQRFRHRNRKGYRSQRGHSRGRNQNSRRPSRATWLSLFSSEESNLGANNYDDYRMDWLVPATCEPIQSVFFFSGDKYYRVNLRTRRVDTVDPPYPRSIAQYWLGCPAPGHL
UniProt P43406: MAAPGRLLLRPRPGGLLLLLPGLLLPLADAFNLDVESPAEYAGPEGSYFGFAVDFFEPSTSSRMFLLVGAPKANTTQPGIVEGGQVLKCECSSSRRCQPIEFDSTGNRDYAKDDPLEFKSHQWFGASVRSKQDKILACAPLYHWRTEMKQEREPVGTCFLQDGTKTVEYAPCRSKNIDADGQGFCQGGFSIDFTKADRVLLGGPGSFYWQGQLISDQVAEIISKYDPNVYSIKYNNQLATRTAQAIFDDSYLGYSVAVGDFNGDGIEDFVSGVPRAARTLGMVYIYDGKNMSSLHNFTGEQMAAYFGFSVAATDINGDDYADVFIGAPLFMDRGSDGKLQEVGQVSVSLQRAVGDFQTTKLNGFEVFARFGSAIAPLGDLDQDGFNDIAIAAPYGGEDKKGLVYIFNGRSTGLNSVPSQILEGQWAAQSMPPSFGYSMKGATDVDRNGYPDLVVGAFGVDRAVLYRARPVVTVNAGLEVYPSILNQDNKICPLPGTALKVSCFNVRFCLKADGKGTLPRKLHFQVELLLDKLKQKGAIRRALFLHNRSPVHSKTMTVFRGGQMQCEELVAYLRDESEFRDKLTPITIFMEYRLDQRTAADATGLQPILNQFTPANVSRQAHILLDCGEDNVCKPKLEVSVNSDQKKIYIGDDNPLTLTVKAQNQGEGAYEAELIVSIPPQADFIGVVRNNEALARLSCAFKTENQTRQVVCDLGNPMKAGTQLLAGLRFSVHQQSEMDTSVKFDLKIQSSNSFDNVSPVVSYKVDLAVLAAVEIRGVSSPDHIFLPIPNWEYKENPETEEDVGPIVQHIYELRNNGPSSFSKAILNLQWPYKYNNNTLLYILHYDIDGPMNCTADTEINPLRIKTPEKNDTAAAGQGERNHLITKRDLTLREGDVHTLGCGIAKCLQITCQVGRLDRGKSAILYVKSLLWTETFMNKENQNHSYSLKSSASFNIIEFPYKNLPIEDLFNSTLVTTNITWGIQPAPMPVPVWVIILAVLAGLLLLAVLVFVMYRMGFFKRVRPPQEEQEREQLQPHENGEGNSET

The assay concerns the target vitronectin (UniProt P04004). The assay can be described thus: AFM single-cell force spectroscopy (adhesion force and single rupture events); single fibroblast on a ConA-coated cantilever brought onto glass coated with 50 μg/ml substrate protein, contact force 1 nN, contact times 5-120 s, retraction at 2-40 μm/s, 37 °C, SCFS medium pH 7.2; only the target purified.

For the substance “αVβ3 integrin (from UniProt P43406 31-1044; O54890 26-787) (receptor)”, the binding result is “binds”.

Turning to “αVβ5 integrin (from UniProt P43406 31-1044; O70309 24-798) (receptor)”, the binding result is recorded as “binds”.

For the origin of these results see publication PMC13601624.
